According to the M2OR odorant receptor database:
Substitutions are numbered along the chain they refer to. The list shows a part of the results, in another mix than the full data. The calls were merged from several studies; some rest on single wells. Some of the results follow.

The chains behind the UniProt entries cited, without tags or fusion partners. Where a name states a change or a piece, a line headed by the entry shows the natural chain unless it says otherwise.
UniProt Q8NH64: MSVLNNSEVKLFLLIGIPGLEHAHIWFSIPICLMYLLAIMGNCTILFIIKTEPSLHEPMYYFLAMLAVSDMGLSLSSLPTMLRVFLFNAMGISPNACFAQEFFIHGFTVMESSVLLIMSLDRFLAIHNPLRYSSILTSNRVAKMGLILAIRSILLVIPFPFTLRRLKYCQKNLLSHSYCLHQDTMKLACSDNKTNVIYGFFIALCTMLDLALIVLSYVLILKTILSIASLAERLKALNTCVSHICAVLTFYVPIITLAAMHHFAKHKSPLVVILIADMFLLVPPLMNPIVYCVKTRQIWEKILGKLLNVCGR
UniProt Q9Y5P0: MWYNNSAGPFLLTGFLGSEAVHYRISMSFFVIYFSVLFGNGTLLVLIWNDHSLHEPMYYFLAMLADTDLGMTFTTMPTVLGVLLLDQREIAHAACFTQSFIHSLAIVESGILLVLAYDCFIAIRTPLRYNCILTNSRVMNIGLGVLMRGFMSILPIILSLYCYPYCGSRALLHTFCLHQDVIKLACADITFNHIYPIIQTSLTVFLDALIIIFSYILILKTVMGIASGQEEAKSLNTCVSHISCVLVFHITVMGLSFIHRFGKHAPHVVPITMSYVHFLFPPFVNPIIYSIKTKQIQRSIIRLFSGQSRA
UniProt Q9H340: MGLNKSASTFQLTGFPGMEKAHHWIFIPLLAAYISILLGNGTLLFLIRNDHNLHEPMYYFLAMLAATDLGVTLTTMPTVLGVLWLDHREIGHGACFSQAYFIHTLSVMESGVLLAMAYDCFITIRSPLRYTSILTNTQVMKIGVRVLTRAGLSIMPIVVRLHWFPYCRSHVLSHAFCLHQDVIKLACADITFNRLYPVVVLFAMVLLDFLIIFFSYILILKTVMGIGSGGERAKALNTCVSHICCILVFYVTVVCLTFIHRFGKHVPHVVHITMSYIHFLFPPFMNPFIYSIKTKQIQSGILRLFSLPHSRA

Experiments:
Settings in all cases: stereoisomer not certain
OR4S2 (Homo sapiens) = biological target: T1, OR4S2 (Homo sapiens) (UniProt Q8NH73)
T1 sequence (whole entry): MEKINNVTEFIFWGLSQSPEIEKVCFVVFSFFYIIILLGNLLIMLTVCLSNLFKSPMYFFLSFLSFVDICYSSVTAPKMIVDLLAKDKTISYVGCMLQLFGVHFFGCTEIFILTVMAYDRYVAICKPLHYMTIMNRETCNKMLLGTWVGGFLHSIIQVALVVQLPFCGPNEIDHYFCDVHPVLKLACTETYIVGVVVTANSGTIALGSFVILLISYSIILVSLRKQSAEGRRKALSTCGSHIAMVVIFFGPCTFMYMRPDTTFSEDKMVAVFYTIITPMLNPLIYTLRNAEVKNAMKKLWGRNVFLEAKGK
How it was run: (§1)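 Values were gathered from published papers (main text and supplementary material), with extra details requested from the original authors when needed, and checked for typos and inconsistencies. Each receptor–molecule pair is called responsive (active) if the original authors judged the measured signal statistically different from baseline, and non-responsive (inactive) otherwise. Assay methods varied by source, often transient mammalian cell-line luciferase assays. Recorded details include cell line, G-protein, co-transfected protein and tags.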

OR4X1 = system: T2, OR4X1
T2 sequence (whole entry): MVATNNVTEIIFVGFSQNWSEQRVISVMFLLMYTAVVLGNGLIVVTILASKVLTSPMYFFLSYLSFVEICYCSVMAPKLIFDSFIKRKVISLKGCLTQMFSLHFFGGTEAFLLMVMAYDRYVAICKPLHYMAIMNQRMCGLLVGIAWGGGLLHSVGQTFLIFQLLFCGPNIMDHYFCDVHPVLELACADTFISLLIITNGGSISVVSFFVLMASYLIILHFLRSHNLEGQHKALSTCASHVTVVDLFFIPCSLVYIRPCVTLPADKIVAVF
How it was run: as §1

OR4X2 (Homo sapiens) = biological target: T3, OR4X2 (Homo sapiens) (UniProt Q8NGF9)
T3 sequence (whole entry): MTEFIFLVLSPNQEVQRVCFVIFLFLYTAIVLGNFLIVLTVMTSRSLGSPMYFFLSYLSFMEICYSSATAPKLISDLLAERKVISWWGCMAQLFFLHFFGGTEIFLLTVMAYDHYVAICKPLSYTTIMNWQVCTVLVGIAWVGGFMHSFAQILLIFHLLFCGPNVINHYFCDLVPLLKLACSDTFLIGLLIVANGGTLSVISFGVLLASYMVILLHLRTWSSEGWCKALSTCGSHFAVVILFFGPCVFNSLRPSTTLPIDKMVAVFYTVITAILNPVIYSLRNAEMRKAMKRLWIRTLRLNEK
How it was run: as §1

OR51A2 (Homo sapiens) = biological target: T4, OR51A2 (Homo sapiens) (UniProt Q8NGJ7)
T4 sequence (whole entry): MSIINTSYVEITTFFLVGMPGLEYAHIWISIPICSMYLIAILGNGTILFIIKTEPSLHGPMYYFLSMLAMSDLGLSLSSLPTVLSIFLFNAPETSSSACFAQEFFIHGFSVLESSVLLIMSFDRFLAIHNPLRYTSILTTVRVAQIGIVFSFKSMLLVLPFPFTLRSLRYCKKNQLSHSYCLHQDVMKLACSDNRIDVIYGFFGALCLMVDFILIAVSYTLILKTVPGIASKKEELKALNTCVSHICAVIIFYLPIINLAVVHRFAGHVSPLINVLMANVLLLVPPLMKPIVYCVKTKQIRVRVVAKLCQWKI
How it was run: as §1

OR51A4 (Homo sapiens) = biological target: T5, OR51A4 (Homo sapiens) (UniProt Q8NGJ6)
T5 sequence (whole entry): T4 sequence (whole entry) with G59E, T94I, S97N, S167N, P227L, E235Q, G267R, M288T, K289N, W311R
How it was run: as §1

OR51A7 (Homo sapiens) = OR51A7 (Homo sapiens) (UniProt Q8NH64)
How it was run: as §1

OR51B2 (Homo sapiens) = biological target: T6, OR51B2 (Homo sapiens) (UniProt Q9Y5P1)
T6 sequence (whole entry): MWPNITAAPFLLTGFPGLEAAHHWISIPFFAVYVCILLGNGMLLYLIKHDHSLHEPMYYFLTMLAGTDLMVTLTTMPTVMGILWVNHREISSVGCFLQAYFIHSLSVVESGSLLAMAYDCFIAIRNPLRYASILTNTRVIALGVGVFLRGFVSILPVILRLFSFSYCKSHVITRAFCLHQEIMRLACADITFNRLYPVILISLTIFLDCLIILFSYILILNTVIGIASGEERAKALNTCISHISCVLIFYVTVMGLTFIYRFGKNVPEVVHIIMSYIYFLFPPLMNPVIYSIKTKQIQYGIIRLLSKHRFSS
How it was run: as §1

OR51B4 (Homo sapiens) = OR51B4 (Homo sapiens) (UniProt Q9Y5P0)
How it was run: as §1

OR51B5 (Homo sapiens) = biological target: T7, OR51B5 (Homo sapiens) (UniProt Q9H339)
T7 sequence (whole entry): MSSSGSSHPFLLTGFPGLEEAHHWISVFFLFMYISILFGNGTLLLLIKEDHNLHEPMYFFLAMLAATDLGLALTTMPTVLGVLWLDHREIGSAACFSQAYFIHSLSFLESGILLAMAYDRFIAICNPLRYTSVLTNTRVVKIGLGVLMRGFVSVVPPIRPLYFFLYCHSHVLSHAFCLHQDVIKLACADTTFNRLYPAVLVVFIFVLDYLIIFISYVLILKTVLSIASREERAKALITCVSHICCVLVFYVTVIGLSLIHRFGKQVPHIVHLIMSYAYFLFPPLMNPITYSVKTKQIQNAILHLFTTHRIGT
How it was run: as §1

OR51B6 (Homo sapiens) = OR51B6 (Homo sapiens) (UniProt Q9H340)
How it was run: as §1

OR51D1 (Homo sapiens) = biological target: T8, OR51D1 (Homo sapiens) (UniProt Q8NGF3)
T8 sequence (whole entry): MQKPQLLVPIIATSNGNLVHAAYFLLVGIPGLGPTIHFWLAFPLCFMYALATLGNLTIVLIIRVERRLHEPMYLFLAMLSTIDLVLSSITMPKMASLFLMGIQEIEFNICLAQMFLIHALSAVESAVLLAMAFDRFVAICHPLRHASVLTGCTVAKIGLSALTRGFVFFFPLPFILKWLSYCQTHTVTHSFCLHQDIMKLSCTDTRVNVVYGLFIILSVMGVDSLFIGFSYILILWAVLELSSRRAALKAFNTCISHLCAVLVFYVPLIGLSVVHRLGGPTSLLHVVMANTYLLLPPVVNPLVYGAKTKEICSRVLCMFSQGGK
How it was run: as §1

OR51E1 (Homo sapiens) [1] = biological target: T9, OR51E1 (Homo sapiens) (UniProt Q8TCB6)
T9 sequence (whole entry): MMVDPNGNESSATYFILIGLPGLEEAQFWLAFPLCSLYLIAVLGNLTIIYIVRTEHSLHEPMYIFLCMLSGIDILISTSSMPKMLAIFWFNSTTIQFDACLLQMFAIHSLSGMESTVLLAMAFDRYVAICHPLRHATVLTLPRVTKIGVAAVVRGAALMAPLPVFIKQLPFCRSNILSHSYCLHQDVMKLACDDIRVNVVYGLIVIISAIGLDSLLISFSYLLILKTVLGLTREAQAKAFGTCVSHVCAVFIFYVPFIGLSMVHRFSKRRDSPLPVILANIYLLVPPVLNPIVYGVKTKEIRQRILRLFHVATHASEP
How it was run: as §1

OR51E1 (Homo sapiens) [2] = biological target: T10, OR51E1 (Homo sapiens) (UniProt Q8TCB6); remark: listed apart in the source
T10 sequence (whole entry): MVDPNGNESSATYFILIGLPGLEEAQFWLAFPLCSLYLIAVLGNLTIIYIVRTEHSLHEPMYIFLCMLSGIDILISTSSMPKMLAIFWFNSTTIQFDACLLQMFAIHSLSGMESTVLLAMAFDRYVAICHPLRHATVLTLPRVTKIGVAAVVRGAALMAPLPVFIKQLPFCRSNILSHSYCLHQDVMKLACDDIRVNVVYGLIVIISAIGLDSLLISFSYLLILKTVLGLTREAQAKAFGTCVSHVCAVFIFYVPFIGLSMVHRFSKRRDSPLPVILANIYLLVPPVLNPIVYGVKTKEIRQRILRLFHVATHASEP
How it was run: as §1

OR51E2 (Homo sapiens) = biological target: T11, OR51E2 (Homo sapiens) (UniProt Q9H255)
T11 sequence (whole entry): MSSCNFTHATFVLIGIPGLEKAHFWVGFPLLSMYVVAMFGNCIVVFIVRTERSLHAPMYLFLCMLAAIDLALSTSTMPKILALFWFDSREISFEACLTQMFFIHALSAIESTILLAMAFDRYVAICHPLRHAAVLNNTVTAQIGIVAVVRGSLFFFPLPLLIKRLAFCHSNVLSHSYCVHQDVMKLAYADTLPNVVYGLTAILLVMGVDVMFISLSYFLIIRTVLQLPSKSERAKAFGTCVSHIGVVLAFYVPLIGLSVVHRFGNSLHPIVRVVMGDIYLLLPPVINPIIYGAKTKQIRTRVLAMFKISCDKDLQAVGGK
How it was run: as §1

OR51F1 (Homo sapiens) = biological target: T12, OR51F1 (Homo sapiens) (UniProt A6NGY5)
T12 sequence (whole entry): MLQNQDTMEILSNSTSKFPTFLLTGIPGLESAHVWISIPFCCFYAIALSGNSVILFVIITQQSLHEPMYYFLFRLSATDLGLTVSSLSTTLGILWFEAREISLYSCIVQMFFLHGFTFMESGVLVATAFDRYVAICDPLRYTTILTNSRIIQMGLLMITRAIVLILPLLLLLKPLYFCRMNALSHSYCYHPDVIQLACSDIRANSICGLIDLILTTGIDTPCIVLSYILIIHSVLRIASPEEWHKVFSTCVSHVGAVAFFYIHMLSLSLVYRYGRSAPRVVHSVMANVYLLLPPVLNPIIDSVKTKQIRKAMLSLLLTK
How it was run: as §1

OR51F2 (Homo sapiens) = biological target: T13, OR51F2 (Homo sapiens) (UniProt Q8NH61)
T13 sequence (whole entry): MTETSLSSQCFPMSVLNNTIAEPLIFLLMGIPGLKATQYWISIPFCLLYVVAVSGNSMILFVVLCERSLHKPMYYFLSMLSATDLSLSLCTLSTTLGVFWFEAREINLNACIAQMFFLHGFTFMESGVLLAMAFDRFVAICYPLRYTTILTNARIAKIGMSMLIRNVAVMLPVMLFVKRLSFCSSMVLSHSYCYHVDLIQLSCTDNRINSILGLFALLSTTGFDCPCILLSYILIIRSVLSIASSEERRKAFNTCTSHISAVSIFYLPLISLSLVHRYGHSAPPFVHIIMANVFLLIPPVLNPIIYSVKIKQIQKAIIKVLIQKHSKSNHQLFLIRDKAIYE
How it was run: as §1

OR51G1 (Homo sapiens) = biological target: T14, OR51G1 (Homo sapiens) (UniProt Q8NGK1)
T14 sequence (whole entry): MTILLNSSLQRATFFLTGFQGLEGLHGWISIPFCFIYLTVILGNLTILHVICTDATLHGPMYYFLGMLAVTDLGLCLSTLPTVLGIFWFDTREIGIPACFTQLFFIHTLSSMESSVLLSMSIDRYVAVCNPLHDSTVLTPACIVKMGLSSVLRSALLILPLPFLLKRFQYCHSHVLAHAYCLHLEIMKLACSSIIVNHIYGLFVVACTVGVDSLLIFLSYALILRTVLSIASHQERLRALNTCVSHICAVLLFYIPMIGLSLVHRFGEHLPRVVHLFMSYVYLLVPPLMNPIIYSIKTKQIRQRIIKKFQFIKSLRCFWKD
How it was run: as §1

OR51G2 (Homo sapiens) = biological target: T15, OR51G2 (Homo sapiens) (UniProt Q8NGK0)
T15 sequence (whole entry): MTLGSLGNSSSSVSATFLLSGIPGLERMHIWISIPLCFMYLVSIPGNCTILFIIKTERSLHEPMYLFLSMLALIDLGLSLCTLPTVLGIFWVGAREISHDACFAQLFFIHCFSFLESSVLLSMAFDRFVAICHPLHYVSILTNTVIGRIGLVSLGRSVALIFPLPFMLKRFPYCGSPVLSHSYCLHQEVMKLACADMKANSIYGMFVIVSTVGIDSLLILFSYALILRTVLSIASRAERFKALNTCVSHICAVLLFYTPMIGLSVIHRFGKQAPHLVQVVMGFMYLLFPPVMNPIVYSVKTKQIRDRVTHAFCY
How it was run: as §1

OR51H1 (Homo sapiens) = biological target: T16, OR51H1 (Homo sapiens) (UniProt Q8NH63)
T16 sequence (whole entry): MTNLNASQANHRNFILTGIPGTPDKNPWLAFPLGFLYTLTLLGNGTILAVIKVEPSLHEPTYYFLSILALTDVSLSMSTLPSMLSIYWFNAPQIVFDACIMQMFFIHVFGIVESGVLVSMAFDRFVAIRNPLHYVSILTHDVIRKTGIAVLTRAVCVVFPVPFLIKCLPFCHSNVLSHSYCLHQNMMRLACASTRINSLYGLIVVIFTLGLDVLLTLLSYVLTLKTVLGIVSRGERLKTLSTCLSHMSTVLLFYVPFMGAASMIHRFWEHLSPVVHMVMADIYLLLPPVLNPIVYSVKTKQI
How it was run: as §1

Measured: odorant receptor agonist call

CC(=O)C(C)=O
inactive: all assays above

CCCCCOC(C)=O
inactive: OR4S2 (Homo sapiens) | OR4X1 | OR4X2 (Homo sapiens) | OR51A2 (Homo sapiens) | OR51B2 (Homo sapiens) | OR51D1 (Homo sapiens) | OR51E1 (Homo sapiens) [1] | OR51E2 (Homo sapiens) | OR51G1 (Homo sapiens) | OR51H1 (Homo sapiens)

COC(=O)c1ccccc1O
inactive: OR4S2 (Homo sapiens) | OR4X1 | OR4X2 (Homo sapiens) | OR51A2 (Homo sapiens) | OR51B2 (Homo sapiens) | OR51D1 (Homo sapiens) | OR51E1 (Homo sapiens) [1] | OR51E2 (Homo sapiens) | OR51G1 (Homo sapiens) | OR51H1 (Homo sapiens)
